Values quoted from earlier work in patent US20220152251A1, “Non-Aqueous PS/ICP Systems And Application To Surfaces” (Mi2 Holdings LLC, priority 2020, published 2022).
At least one compound was matched to its structure with a doubt left.

Settings: cited from earlier work

C=Cc1c(C)c2cc3nc(c(CC(=O)O)c4[nH]c(cc5nc(cc1[nH]2)C(C)=C5CC)c(C)c4C(=O)O)[C@@H](CCC(=O)O)[C@@H]3C [Chlorin e6]
Lambda Max: 400/650
